Reference: publication PMC7809799, “A microtubule‐LUZP1 association around tight junction promotes epithelial cell apical constriction” (The EMBO Journal, 2020)
No constants are given. Whether binding was seen depends on the method and setting. Binding seen in cells or lysates may run through a third protein. Binding calls can cover weak binding; strength is not graded here.

Biological target: T1, LUZP1 (endogenous, Eph4 cells) (mouse (endogenous in Eph4)) (UniProt Q8R4U7)
T1 sequence: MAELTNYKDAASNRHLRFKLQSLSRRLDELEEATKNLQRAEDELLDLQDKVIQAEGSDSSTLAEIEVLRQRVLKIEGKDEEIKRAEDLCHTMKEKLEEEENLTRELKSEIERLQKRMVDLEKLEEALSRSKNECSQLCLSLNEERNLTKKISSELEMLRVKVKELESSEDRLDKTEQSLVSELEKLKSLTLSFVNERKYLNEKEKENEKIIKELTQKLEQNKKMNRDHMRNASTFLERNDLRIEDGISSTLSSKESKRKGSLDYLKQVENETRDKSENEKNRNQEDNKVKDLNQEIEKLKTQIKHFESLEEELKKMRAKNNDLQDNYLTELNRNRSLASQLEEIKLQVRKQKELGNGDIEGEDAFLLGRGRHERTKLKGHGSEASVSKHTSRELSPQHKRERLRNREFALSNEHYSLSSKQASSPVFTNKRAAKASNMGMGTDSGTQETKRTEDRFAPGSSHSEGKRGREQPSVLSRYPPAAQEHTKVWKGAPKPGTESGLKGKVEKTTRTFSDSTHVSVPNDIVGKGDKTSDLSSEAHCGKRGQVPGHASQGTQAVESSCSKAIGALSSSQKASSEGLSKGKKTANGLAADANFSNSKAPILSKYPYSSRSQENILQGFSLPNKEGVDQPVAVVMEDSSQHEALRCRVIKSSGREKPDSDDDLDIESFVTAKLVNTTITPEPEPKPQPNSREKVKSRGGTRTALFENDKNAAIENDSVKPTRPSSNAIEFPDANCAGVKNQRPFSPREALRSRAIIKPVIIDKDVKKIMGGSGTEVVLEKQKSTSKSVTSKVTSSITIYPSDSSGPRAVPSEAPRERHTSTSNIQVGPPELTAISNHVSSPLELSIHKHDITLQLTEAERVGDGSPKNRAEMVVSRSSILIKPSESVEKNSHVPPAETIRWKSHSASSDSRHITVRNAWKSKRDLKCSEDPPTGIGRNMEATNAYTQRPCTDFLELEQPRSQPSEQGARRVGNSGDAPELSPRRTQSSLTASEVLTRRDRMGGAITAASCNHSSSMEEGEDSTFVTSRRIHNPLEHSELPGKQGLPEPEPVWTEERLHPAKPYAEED
Assay: co-IP; WT Eph4 cells, endogenous proteins, immunoprecipitation with the anti‐LUZP1 antibody, immunoblotting

## myosin light chain (endogenous, Eph4 cells) (mouse (endogenous in Eph4))
  binding: binds

## α‐tubulin (endogenous, Eph4 cells) (mouse (endogenous in Eph4))
  binding: binds
